Measured values as given in patent US20260327250A1, “3-ETHYLAMINO-INDOLE DIMERS AS SEROTONERGIC AGENTS USEFUL FOR THE TREATMENT OF DISORDERS RELATED THERETO” (MINDSET PHARMA INC., priority 2022, published 2026).

System: Caco-2 cell monolayers
Test: Assessment of Caco-2 cell monolayer integrity
Format: in vitro ADME
Conditions: Lucifer Yellow; for LY LeakageA−B: A−B; for LY LeakageB−A: B−A

Row | SMILES | LY LeakageA−B [%] | LY LeakageB−A [%]
1 | CN(C)CCc1c[nH]c2cccc(OC(=O)CCCC(=O)Oc3cccc4[nH]cc(CCN(C)C)c34)c12 [Compound I-24, Bis(3-(2-(dimethylamino)ethyl)-1H-indol-4-yl) glutarate] | 0.75 | 0.66
2 | CC(C)N(CCc1c[nH]c2cccc(OC(=O)CCCC(=O)Oc3cccc4[nH]cc(CCN(C(C)C)C(C)C)c34)c12)C(C)C [Compound I-37, Bis(3-(2-(diisopropylamino)ethyl)-1H-indol-4-yl) glutarate dihydrochloride] | 0.45 | 0.64
3 | C[C@H]1O[C@@H](O[C@H]2[C@@H](O)C[C@H](O[C@H]3[C@@H](O)C[C@H](O[C@H]4CC[C@@]5(C)[C@H](CC[C@@H]6[C@@H]5C[C@@H](O)[C@]5(C)[C@@H](C7=CC(=O)OC7)CC[C@]65O)C4)O[C@@H]3C)O[C@@H]2C)C[C@H](O)[C@@H]1O [Digoxin] | 0.53 | 0.46
4 | COc1cc2nc(N3CCN(C(=O)c4ccco4)CC3)nc(N)c2cc1OC [Prazosin] | 0.39 | 0.41
5 | CC(C)NCC(O)COc1cccc2ccccc12 (stereo not shown) [Propranolol] | 0.50 | 0.43

Structures can show the parent of a compound that is named as a salt.
